In the supplement of paper PMC12067093, “Discovery and optimisation of a covalent ligand for TRIM25 and its application to targeted protein ubiquitination” (Chemical Science, 2025):
The other results are listed elsewhere or left out.

Protein sequences, listed by entry. Tags and fused reporters are not part of them. Lines headed by an entry give the natural chain unless they say otherwise; changes in a name come on top.
UniProt P13489: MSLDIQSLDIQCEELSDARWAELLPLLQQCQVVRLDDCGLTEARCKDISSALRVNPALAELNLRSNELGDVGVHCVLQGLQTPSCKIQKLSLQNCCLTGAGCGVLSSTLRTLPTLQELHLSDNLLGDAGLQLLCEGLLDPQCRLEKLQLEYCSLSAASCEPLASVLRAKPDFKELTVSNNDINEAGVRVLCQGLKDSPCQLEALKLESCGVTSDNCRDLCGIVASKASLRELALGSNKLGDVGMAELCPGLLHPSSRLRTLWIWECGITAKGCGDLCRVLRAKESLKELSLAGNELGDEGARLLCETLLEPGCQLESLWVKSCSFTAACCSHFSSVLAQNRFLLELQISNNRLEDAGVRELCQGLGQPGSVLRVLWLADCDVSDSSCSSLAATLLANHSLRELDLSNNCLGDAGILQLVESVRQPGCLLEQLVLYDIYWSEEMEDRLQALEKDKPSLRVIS
UniProt Q63HN8: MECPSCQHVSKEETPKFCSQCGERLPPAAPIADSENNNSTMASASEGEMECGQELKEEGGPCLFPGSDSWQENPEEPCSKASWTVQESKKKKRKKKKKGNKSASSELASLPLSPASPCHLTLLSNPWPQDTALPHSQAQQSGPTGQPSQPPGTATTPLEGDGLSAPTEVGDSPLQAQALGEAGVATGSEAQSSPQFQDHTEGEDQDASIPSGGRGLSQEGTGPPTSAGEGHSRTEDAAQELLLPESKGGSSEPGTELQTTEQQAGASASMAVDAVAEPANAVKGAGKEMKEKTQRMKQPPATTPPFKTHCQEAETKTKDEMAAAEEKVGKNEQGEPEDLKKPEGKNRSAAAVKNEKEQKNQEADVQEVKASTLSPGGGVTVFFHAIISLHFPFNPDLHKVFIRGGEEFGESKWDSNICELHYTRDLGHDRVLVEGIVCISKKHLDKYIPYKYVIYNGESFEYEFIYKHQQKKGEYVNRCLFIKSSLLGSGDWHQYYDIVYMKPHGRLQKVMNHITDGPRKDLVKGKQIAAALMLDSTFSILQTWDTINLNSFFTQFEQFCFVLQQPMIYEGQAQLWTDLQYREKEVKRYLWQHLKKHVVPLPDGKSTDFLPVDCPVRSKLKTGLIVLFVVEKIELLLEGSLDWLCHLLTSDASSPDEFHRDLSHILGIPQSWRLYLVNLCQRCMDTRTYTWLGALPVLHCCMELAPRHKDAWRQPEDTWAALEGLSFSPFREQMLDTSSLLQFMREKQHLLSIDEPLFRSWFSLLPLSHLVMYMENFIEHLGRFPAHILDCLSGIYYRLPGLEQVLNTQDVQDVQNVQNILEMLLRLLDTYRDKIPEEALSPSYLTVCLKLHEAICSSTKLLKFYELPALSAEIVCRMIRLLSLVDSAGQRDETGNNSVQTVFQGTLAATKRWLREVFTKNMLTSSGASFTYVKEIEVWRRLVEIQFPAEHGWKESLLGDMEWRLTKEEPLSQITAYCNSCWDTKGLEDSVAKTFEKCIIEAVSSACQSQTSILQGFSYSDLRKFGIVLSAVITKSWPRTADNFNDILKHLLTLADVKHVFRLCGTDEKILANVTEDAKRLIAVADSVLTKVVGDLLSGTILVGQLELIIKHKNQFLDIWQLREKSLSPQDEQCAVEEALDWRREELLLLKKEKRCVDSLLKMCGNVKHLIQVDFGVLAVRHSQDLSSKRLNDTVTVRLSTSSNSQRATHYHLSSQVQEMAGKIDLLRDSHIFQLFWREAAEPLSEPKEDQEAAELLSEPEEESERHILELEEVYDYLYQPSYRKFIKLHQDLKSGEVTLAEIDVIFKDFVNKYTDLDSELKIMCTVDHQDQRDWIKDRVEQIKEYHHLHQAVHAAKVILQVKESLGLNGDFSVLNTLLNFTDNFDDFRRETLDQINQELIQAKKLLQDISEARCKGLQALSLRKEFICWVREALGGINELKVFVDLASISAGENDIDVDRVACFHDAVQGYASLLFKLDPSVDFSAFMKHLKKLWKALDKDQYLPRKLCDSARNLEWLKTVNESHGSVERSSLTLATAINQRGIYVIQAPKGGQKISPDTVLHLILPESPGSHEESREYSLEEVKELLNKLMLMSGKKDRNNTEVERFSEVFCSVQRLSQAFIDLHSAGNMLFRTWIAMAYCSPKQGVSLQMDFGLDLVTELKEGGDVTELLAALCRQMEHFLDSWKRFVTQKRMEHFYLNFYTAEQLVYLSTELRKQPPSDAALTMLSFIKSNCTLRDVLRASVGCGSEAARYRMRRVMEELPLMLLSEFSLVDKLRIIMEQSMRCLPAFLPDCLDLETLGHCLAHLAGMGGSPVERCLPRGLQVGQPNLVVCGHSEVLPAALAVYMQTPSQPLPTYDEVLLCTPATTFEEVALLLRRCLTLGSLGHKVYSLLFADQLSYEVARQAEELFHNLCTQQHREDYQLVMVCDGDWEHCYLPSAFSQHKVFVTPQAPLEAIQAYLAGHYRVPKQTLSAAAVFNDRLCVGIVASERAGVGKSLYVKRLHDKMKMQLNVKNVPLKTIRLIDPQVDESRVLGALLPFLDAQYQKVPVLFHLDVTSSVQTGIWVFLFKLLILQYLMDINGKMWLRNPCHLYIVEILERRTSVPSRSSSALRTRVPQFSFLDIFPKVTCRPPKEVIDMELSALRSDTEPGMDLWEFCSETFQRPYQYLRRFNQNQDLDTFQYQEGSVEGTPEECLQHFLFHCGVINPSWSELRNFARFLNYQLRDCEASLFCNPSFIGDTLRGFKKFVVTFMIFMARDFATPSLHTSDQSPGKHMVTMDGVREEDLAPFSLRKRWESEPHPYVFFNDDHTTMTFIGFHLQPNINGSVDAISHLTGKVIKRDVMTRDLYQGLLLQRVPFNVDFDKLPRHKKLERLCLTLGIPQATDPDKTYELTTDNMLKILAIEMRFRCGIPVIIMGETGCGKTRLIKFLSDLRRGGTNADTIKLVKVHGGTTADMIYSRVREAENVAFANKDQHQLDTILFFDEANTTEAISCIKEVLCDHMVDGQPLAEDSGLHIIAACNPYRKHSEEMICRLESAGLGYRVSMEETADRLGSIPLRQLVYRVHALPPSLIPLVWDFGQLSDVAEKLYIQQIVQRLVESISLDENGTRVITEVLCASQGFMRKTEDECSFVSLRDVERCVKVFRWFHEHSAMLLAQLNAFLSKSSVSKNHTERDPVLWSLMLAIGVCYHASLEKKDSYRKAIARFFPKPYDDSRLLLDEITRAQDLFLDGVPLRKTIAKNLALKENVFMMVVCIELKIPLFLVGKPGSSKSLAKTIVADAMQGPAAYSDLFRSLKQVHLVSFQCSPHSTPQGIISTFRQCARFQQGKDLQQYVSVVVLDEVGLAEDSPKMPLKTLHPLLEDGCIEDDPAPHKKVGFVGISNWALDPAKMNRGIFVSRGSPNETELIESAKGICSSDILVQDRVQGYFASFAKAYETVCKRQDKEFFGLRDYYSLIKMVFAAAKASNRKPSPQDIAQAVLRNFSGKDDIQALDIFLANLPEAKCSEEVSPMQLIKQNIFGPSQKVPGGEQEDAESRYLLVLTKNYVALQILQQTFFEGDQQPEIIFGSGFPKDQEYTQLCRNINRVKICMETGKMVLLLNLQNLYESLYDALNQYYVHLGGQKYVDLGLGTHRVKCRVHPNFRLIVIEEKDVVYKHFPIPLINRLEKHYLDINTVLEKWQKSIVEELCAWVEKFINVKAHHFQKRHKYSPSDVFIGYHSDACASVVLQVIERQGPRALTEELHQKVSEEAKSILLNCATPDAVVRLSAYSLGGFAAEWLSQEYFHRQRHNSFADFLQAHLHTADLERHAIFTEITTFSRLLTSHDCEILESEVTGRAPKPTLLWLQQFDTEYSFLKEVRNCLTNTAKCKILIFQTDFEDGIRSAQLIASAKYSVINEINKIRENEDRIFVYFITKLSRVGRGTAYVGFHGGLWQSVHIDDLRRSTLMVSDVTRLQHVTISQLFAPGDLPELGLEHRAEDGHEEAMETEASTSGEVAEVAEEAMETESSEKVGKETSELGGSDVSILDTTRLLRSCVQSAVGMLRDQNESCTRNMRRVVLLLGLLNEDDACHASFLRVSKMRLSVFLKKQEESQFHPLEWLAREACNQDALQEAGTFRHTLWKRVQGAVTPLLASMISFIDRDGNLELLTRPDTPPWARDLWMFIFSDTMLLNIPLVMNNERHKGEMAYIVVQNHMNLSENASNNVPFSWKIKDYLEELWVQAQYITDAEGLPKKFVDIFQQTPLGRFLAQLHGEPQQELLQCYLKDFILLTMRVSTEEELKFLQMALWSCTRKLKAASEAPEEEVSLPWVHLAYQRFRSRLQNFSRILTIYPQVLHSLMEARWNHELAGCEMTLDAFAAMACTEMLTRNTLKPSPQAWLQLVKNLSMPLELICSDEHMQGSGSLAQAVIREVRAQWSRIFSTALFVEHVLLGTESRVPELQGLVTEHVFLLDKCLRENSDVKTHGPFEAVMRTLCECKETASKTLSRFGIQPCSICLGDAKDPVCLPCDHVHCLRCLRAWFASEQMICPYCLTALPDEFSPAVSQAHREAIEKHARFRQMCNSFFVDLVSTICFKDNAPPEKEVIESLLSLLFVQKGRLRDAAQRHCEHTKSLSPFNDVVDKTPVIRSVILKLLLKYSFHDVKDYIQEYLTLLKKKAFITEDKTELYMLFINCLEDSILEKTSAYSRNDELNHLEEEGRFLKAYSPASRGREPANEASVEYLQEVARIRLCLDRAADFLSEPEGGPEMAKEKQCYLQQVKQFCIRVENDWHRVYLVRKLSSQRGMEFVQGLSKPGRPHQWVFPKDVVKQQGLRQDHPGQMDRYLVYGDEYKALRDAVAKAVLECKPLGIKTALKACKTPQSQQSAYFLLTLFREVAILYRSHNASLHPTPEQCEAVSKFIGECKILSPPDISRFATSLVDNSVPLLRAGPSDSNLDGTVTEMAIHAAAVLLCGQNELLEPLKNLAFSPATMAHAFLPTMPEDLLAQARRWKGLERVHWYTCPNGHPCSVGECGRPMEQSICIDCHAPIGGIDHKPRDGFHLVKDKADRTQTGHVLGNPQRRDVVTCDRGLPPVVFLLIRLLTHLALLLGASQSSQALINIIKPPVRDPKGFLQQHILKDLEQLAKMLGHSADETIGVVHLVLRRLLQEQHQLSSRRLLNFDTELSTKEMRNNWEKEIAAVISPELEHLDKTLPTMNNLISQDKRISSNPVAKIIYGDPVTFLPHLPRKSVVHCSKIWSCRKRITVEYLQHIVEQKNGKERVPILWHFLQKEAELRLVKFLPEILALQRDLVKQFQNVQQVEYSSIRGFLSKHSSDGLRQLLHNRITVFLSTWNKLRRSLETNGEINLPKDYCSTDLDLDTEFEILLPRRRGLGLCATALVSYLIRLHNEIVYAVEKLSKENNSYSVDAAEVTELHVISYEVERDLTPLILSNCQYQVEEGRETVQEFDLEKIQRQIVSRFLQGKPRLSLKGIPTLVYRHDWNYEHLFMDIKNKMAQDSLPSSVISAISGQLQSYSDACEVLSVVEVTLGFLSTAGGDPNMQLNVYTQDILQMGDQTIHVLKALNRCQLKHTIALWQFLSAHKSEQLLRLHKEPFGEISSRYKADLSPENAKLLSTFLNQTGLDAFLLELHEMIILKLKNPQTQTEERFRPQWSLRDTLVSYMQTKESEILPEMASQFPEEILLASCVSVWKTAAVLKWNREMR
UniProt Q86UA6: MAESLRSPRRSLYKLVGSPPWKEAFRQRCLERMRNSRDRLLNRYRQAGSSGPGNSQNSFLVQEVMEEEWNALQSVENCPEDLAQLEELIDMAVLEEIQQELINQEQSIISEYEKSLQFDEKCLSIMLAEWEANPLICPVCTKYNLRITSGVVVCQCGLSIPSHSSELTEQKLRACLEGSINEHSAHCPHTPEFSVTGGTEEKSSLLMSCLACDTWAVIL
UniProt Q9H4P4: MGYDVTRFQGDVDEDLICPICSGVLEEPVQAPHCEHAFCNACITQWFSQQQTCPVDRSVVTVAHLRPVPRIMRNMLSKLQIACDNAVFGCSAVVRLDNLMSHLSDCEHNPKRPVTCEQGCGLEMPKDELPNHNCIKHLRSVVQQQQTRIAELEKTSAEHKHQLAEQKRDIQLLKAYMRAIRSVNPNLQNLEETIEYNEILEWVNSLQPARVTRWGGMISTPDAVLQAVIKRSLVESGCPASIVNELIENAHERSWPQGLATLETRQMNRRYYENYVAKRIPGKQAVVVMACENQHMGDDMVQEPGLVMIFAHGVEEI
UniProt P35244: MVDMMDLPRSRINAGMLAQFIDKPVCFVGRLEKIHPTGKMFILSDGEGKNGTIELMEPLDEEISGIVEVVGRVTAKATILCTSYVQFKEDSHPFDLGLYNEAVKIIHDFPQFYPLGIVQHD
UniProt P78346: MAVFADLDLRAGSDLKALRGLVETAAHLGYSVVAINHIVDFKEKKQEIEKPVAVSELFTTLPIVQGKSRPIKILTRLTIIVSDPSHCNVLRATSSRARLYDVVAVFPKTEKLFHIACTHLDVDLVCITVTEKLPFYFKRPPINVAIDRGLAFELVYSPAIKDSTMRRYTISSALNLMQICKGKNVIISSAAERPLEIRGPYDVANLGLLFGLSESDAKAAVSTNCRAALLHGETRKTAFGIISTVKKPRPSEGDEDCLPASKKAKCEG

compound: CC1Cc2ccccc2N1C(=O)C1CCCN(C1)C(=O)CCl (mixture of isomers) [TRIM25 ligand 11 (diastereomer mixture)]; assay: probe-labelled cysteine peptide fold change vs DMSO (competition) (log2 fold change); higher = less target engagement (more negative = stronger competition); settings: 10 µM; THP-1; incubation time: 4 h
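Note: competitive chemoproteomic profiling in live THP-1 cells with an iodoacetamide desthiobiotin (IA-DTB) probe, comparing probe-labelled peptide intensities in compound-treated cells against DMSO-treated controls.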

Target | probe-labelled cysteine peptide fold change
RPAP3_Q9H6T3_190_KFAVAESDCNLAVALNR (UniProt Q9H6T3) | 0.0301
RNH1_P13489_220_DLCGIVASK (UniProt P13489) | -0.00814
RNH1_P13489_209_LESCGVTSDNCR (UniProt P13489) | 0.0223
RPL8_P62917_90_TELFIAAEGIHTGQFVYCGK (UniProt P62917) | -0.0745
RNGTT_O60942_126_NPPELIGVHCTHGFNR (UniProt O60942) | 0.0434
RPA1_P27694_476_ENCMYQACPTQDCNK (UniProt P27694) | 0.401
RNGTT_O60942_375_FNSQPVGDCDFNVR (UniProt O60942) | -0.163
RNF213_Q63HN8_3979_TLCECK (UniProt Q63HN8) | -0.0721
RNGTT_O60942_261_CHQFCGWEGSGFPGAQPVSMDK (UniProt O60942) | -0.192
RPL17_P18621_144_INPYMSSPCHIEMILTEK (UniProt P18621) | -0.0877
RNF220_Q5VTB9_359_EGSCMAEDDAVDIEHENNNRFEEYEWCGQK (UniProt Q5VTB9) | 0.0341
RNPEP_Q9H4A4_130_ERPGSEEPPAEPVSFYTQPFSHYGQALCVSFPQPCR (UniProt Q9H4A4) | -0.0241
RNF20_Q5VTR2_960_CNAAFGANDFHR (UniProt Q5VTR2) | 0.228
RPAIN_Q86UA6_187_ACLEGSINEHSAHCPHTPEFSVTGGTEEK (UniProt Q86UA6) | 0.117
RNH1_P13489_159_LQLEYCSLSAASCEPLASVLR (UniProt P13489) | -0.124
RNF213_Q63HN8_3609_EACNQDALQEAGTFR (UniProt Q63HN8) | -0.0127
RPL7A_P62424_199_KTCTTVAFTQVNSEDK (UniProt P62424) | -0.305
RNH1_P13489_409_ELDLSNNCLGDAGILQLVESVR (UniProt P13489) | 0.128
RPL30_P62888_92_VCTLAIIDPGDSDIIR (UniProt P62888) | 0.00168

As entered above.
probe-labelled cysteine peptide fold change, RPAIN_Q86UA6_187_ACLEGSINEHSAHCPHTPEFSVTGGTEEK (UniProt Q86UA6) is entered as 0.117
probe-labelled cysteine peptide fold change, RNF213_Q63HN8_3979_TLCECK (UniProt Q63HN8) is entered as -0.0721

Further results follow:

Target | probe-labelled cysteine peptide fold change
ROCK1_Q13464_1242+1245_GHEFIPTLYHFPANCDACAK (UniProt Q13464) | -0.0823
RNF220_Q5VTB9_382_GSGFIMCSGK (UniProt Q5VTB9) | -0.126
ROCK2_O75116_1315_EEIIAPCK (UniProt O75116) | -0.00346
RNF41_Q9H4P4_238_SLVESGCPASIVNELIENAHER (UniProt Q9H4P4) | -0.0718
RNPEP_Q9H4A4_85_LDSHPCLEVTAAALR (UniProt Q9H4A4) | 0.0713
RPL5_P46777_62_DIICQIAYAR (UniProt P46777) | 0.157
RNPEP_Q9H4A4_254_VWAEPCLIDAAK (UniProt Q9H4A4) | 0.377
RPL37_P61927_19_THTLCR (UniProt P61927) | -0.00787
RPL10_P27635_49_AKVDEFPLCGHMVSDEYEQLSSEALEAAR (UniProt P27635) | -0.275
RNGTT_O60942_453_CDDILK (UniProt O60942) | -0.0425
RNF41_Q9H4P4_134_DELPNHNCIK (UniProt Q9H4P4) | 0.109
RPA3_P35244_26_INAGMLAQFIDKPVCFVGR (UniProt P35244) | -0.0762
RPL37A_P61513_60_RAVGIWHCGSCMK (UniProt P61513) | -0.362
RPF2_Q9H7B2_135_CPEGTKPMLIFAGDDFDVTEDYRR (UniProt Q9H7B2) | 0.0662
RPP30_P78346_225_AAVSTNCR (UniProt P78346) | -0.145
RPL24_P83731_6_VELCSFSGYK (UniProt P83731) | 0.00085
RNF14_Q9UBS8_265_DGQVQCLNCPEPK (UniProt Q9UBS8) | -0.0889
RPL37A_P61513_57_AVGIWHCGSCMK (UniProt P61513) | 0.0317
